# From article PMC7819943, “Rice protein-binding microarrays: a tool to detect cis-acting elements near promoter regions in rice”
# Chains of the proteins cited; added tags and fusions are not shown.
# UniProt Q0JBA9, entry or part of it: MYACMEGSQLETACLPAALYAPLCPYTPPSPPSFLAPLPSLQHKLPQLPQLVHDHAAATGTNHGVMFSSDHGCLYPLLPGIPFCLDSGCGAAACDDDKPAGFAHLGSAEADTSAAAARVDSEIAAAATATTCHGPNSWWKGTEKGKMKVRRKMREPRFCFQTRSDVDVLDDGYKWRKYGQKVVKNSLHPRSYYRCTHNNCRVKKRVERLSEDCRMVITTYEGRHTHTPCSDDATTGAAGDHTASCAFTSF
# Some of the results follow.
# Biological target: OsWRKY34 (Oryza sativa, UniProt Q0JBA9 1-250)
# Experiment: protein-binding microarray (RPBM); PBS, 2% BSA, 51.3 ng/ul salmon testes DNA, 50 uM zinc acetate, 200 nM TF, 25 C, 1 h; high values mean tight binding
# Settings: protein: recombinant; tags: N-terminal polyhistidine and DsRed monomer fusion (pET32a); label: CyDye5-dUTP incorporated in the synthesized complementary strand; 3' TTTTT single-stranded linker to array surface; dsDNA, one strand shown
# Summary of the method: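 Polyhistidine-tagged DsRed fusions of transcription factors, joined at the N-terminus, were expressed in E. coli BL21-CodonPlus and isolated on Ni–NTA. They were incubated at 200 nM for 1 h at 25 °C on a custom Agilent array, double-stranded and BSA-blocked, in PBS with 2% BSA, salmon testes DNA and 50 µM zinc acetate. The binding signal is per-feature fluorescence intensity (arbitrary units) read on an Axon 4000B scanner after washing.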
row,Sequence,binding signal
1,TTATTTTCTTTAGTCCGGCTGTGCCTTTGGTTTAGAACATCGGAGTCACCTAGTGCAG,8120 fluorescence intensity (a.u.)
2,TATTCCATTATCTTCAGGTGAATTGCCTGTACTTTGTCTTCGGAGTCACCTAGTGCAG,8360 fluorescence intensity (a.u.)
3,TCCTTTCCGCCACTCGCCGCCGCCGCCGCCGCCGGGGCGGCGGAGTCACCTAGTGCAG,9120 fluorescence intensity (a.u.)
4,CTAATGCTTCATGGAATACGCAGCCTACTGATAGTTTTTTCGGAGTCACCTAGTGCAG,9860 fluorescence intensity (a.u.)
5,TTTCGCCTAAACCCTAGCCGTCCACACCCCACCACCACCGCGGAGTCACCTAGTGCAG,9410 fluorescence intensity (a.u.)
6,GATACCCAGACTGTTTGCAATCCCAAAGCACATCTTAAATCGGAGTCACCTAGTGCAG,9220 fluorescence intensity (a.u.)
7,GGAGCGCGGGAGGCGGGGAGCTTAGTTTGAGCTCGGTCGGCGGAGTCACCTAGTGCAG,8840 fluorescence intensity (a.u.)
8,TGTTACAGTCGATTTTTTTTCAGCCACTTACACAGTAGTTCGGAGTCACCTAGTGCAG,10600 fluorescence intensity (a.u.)
9,CGCGACTTCTTGCTTTTCCGCCCTCGCCACCACATCGACACGGAGTCACCTAGTGCAG,11100 fluorescence intensity (a.u.)
10,TGTGTTTCTACCTGCCTGACAAAGTGACCACCATCATGGTCGGAGTCACCTAGTGCAG,8990 fluorescence intensity (a.u.)
11,AGTTTGCTGTTTCGGTCGGATTAATCCATTCCACTTTACTCGGAGTCACCTAGTGCAG,11800 fluorescence intensity (a.u.)
12,GGCTAGGATCCGTCGCTAACCCACTATATATCCAAACCTCCGGAGTCACCTAGTGCAG,9430 fluorescence intensity (a.u.)
13,ACCGCCGCCGTTCACCGTTCCGCCCGTCCACCTACCTCGTCGGAGTCACCTAGTGCAG,8080 fluorescence intensity (a.u.)
14,GAGAGGGGTTGGGAACATAGGATTGCAAACACAGCCTTAGCGGAGTCACCTAGTGCAG,9780 fluorescence intensity (a.u.)
15,AGTCAGTGCTTCATTCAACATACCATTTTACATTTCTTTCCGGAGTCACCTAGTGCAG,11300 fluorescence intensity (a.u.)
16,AGATATGATCACCGGTCTTTACCATTACATAGTTTTTGTCCGGAGTCACCTAGTGCAG,9560 fluorescence intensity (a.u.)
17,GCCAAATTGACTTGGTTGGGGTTCGTGAATGTCGTTGCATCGGAGTCACCTAGTGCAG,9030 fluorescence intensity (a.u.)
18,CTGTAACTTTGCAAACGAGACCCTATTTGGATCTTTATTACGGAGTCACCTAGTGCAG,10100 fluorescence intensity (a.u.)
19,GATCCTCTGTTTTATCTACGCGTTCCTATCAAATTCCTTTCGGAGTCACCTAGTGCAG,16800 fluorescence intensity (a.u.)
20,ATCCCGTAGATCTCGTCATCTACACCACGCTATTCGTATCCGGAGTCACCTAGTGCAG,11600 fluorescence intensity (a.u.)
21,TTATTTACTCCAGGCGGTTTTTTTTCCTTCTTATTCTGTTCGGAGTCACCTAGTGCAG,10900 fluorescence intensity (a.u.)

row,Sequence,binding signal
1,ACGTTGCACATCTTTGGCGTGTCTTGCCATCTCTTCCAGTCGGAGTCACCTAGTGCAG,9130 fluorescence intensity (a.u.)
2,TGAAACTCTACACAAGAGCTCTTCGCATCATTTTCTTTTTCGGAGTCACCTAGTGCAG,9320 fluorescence intensity (a.u.)
3,GGTCAACATTTTTCGTAGTGGGGATTAGGGATGTCATACACGGAGTCACCTAGTGCAG,10600 fluorescence intensity (a.u.)
4,GGGGTGCATAATCTGGAAGGCCGATTTGGTAAAACAATGGCGGAGTCACCTAGTGCAG,8620 fluorescence intensity (a.u.)
5,AAGTCATTTGTTTGTTACGTTATTCTTGCATCTGTTGATCCGGAGTCACCTAGTGCAG,8950 fluorescence intensity (a.u.)
6,TTTTTTTGTATGTACATCATCATTGCTAAAATCTTTAATACGGAGTCACCTAGTGCAG,8260 fluorescence intensity (a.u.)
7,GGTATACTTGCATACATGCGTTCTTTGTTGTTGCTGACTACGGAGTCACCTAGTGCAG,9560 fluorescence intensity (a.u.)
8,CCTCCGCCACCGCCGCCCGGCCGCCTCCCCTCCCGGATCCCGGAGTCACCTAGTGCAG,8320 fluorescence intensity (a.u.)
9,ACCCTTAACCTTATCTTATCTTATTCAGCATGCACATGGTCGGAGTCACCTAGTGCAG,8460 fluorescence intensity (a.u.)
10,TCGCTCTTCGCCCGCCGCCGCCATTGTCCCCGCCGTCCCCCGGAGTCACCTAGTGCAG,8830 fluorescence intensity (a.u.)
11,ACTGCATAAAAACGCCCCACCTCCGCCGAATCGCCGATCCCGGAGTCACCTAGTGCAG,8130 fluorescence intensity (a.u.)
12,ATCTCCACCGTCCGTCTCCATCCTACACCACCCCGTTCTCCGGAGTCACCTAGTGCAG,9670 fluorescence intensity (a.u.)
13,TTGGTTGCATGTTTTTTCACGTAAAATCTTAATTTTTGCACGGAGTCACCTAGTGCAG,8150 fluorescence intensity (a.u.)
14,CTTATCCGATTATACCGTTATGTTCGTTGCAATTAAATCTCGGAGTCACCTAGTGCAG,12200 fluorescence intensity (a.u.)
15,GTGAGCTGCCCGGCTCTCGCCGTTCTTGACCTCTCCGTCACGGAGTCACCTAGTGCAG,8660 fluorescence intensity (a.u.)
16,ACGCACCAAAACACACGATCCTCTCGGATAAATCACAGCCCGGAGTCACCTAGTGCAG,27500 fluorescence intensity (a.u.)
17,ATCTACGAGAGATTTGTTTGGTGAATGGTGATTTCTTCCTCGGAGTCACCTAGTGCAG,9300 fluorescence intensity (a.u.)
18,TTTACGATTTCAAGATTGCCTTCCGTTTCGAGTTCTGCCGCGGAGTCACCTAGTGCAG,8130 fluorescence intensity (a.u.)
19,TACTGATCTAGTCATCAATCCATGCATCCATCCATCATTACGGAGTCACCTAGTGCAG,9430 fluorescence intensity (a.u.)
20,TTTTGTACTGCTCATGTCTAAGTTTTATTTTAATTTTTATCGGAGTCACCTAGTGCAG,9860 fluorescence intensity (a.u.)
21,AGGCGAGAGCTCTTCTCCGTTTCCTCCGTTTTCTCCGTTCCGGAGTCACCTAGTGCAG,8960 fluorescence intensity (a.u.)

# At a glance, part of the list above.
row,Sequence,binding signal
8,CCTCCGCCACCGCCGCCCGGCCGCCTCCCCTCCCGGATCCCGGAGTCACCTAGTGCAG,8320 fluorescence intensity (a.u.)
9,ACCCTTAACCTTATCTTATCTTATTCAGCATGCACATGGTCGGAGTCACCTAGTGCAG,8460 fluorescence intensity (a.u.)
10,TCGCTCTTCGCCCGCCGCCGCCATTGTCCCCGCCGTCCCCCGGAGTCACCTAGTGCAG,8830 fluorescence intensity (a.u.)
11,ACTGCATAAAAACGCCCCACCTCCGCCGAATCGCCGATCCCGGAGTCACCTAGTGCAG,8130 fluorescence intensity (a.u.)
12,ATCTCCACCGTCCGTCTCCATCCTACACCACCCCGTTCTCCGGAGTCACCTAGTGCAG,9670 fluorescence intensity (a.u.)
13,TTGGTTGCATGTTTTTTCACGTAAAATCTTAATTTTTGCACGGAGTCACCTAGTGCAG,8150 fluorescence intensity (a.u.)
14,CTTATCCGATTATACCGTTATGTTCGTTGCAATTAAATCTCGGAGTCACCTAGTGCAG,12200 fluorescence intensity (a.u.)
15,GTGAGCTGCCCGGCTCTCGCCGTTCTTGACCTCTCCGTCACGGAGTCACCTAGTGCAG,8660 fluorescence intensity (a.u.)
16,ACGCACCAAAACACACGATCCTCTCGGATAAATCACAGCCCGGAGTCACCTAGTGCAG,27500 fluorescence intensity (a.u.)
17,ATCTACGAGAGATTTGTTTGGTGAATGGTGATTTCTTCCTCGGAGTCACCTAGTGCAG,9300 fluorescence intensity (a.u.)
18,TTTACGATTTCAAGATTGCCTTCCGTTTCGAGTTCTGCCGCGGAGTCACCTAGTGCAG,8130 fluorescence intensity (a.u.)
